{"source": "PubChem BioAssay AID977611", "origin": "cited, not measured here", "note": "This list holds what a sample rich in hits left over. Measured potencies and affinities stand elsewhere. Activity calls are given as the source filed them. Cut-off not given; nearly all actives show Kd up to about 4200 µM.", "data": [{"test": "PubChem AID 977611", "conditions": "PDB protein-ligand complexes, literature Kd; protein: FIBROBLAST GROWTH FACTOR RECEPTOR 1 (FMS-RELATED TYROSINE KINASE 2, PFEIFFER SYNDROME), ISOFORM CRA_B FGFR1; PDB entry 4v05", "values": [{"molecule": "COc1cc(CCc2cc(NC(=O)c3ccc(N4C[C@@H](C)N[C@@H](C)C4)cc3)n[nH]2)cc(OC)c1", "Kd": "active: 0.2 nM"}]}]}
